# Measurements taken from patent US10513521B2, “Compositions and methods for inhibiting BMP” (The Brigham and Women's Hospital, Inc., priority 2014, dated 2019).
# Amino acid sequences for entries named in this document (tags omitted). Residues count along the entry.
# UniProt P37023, 22-503 limits assumed: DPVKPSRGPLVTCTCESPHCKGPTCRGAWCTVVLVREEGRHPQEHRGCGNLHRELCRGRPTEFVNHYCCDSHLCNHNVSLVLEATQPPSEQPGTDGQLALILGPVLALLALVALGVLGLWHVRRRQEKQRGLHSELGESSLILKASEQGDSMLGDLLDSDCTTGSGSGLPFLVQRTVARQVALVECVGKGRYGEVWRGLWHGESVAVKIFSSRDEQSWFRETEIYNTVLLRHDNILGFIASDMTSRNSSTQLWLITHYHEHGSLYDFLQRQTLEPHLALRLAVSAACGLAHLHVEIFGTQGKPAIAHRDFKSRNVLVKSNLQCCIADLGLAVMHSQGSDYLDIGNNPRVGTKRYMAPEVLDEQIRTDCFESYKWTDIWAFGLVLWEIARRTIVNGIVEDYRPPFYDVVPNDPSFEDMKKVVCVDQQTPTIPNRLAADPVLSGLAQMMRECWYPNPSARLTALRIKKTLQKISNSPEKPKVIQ
# UniProt P36894, 24-532 limits assumed: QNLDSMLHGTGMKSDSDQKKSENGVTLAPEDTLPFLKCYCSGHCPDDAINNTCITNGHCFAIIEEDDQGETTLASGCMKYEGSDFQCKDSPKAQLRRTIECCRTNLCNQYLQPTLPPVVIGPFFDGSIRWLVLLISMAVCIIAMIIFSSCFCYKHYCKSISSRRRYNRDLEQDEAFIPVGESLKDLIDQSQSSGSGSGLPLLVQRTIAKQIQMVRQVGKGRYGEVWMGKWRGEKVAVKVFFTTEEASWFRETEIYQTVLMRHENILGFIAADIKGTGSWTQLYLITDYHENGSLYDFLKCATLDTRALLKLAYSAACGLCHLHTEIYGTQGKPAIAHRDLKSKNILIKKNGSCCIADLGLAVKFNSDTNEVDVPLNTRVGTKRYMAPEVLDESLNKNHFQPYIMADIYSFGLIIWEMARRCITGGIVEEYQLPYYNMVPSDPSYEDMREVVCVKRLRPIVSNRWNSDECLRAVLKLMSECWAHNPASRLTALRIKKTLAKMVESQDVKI
# UniProt P36896, 24-505 limits assumed: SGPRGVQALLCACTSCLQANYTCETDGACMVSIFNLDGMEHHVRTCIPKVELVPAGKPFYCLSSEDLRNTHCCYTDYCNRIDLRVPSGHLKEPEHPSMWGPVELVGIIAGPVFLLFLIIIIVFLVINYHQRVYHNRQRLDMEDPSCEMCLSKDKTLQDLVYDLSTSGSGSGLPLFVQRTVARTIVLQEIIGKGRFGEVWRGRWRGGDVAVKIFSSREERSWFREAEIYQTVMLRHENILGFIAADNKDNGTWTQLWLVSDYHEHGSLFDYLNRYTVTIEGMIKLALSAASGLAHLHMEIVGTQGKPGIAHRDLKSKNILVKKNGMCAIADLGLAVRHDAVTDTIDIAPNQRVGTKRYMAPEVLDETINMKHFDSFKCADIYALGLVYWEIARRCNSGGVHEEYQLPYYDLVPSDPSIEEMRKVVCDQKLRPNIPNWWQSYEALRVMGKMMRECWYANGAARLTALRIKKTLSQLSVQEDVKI
# UniProt P36897, 34-503 limits assumed: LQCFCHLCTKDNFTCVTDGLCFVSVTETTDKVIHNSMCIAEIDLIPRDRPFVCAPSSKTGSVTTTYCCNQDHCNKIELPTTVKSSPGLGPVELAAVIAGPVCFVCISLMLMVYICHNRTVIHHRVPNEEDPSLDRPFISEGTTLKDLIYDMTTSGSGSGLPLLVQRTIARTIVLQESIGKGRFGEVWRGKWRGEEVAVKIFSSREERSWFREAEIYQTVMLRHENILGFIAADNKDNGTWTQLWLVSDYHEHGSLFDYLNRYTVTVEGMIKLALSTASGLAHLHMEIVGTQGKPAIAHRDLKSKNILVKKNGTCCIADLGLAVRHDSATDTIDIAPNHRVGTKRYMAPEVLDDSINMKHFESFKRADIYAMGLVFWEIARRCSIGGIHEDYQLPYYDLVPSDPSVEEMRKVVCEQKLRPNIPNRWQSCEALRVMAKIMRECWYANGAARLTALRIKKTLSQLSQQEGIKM
# UniProt O00238, 14-502 limits assumed: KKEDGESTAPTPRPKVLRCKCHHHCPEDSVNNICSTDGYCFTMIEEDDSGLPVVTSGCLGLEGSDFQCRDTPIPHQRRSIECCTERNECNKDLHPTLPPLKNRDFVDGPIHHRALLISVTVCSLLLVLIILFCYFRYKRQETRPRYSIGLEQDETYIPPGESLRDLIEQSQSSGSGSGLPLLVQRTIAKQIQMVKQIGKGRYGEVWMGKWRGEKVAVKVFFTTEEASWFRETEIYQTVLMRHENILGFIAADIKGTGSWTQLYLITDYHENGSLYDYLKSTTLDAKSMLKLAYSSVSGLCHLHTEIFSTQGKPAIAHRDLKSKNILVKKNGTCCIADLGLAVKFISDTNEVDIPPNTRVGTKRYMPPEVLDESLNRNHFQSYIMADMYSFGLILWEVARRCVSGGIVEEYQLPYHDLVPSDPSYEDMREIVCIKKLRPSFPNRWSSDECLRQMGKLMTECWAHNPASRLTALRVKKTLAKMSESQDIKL
# Assays:
# ALK1 = ALK1 (Homo sapiens, UniProt P37023); experiment: TR-FRET enzymatic ALK kinase assay, ALK1; conditions: read-out: Kinase Assay ALK1; enzyme assay
# ALK3 = ALK3 (Homo sapiens, UniProt P36894); experiment: TR-FRET enzymatic ALK kinase assay, ALK3; conditions: read-out: Kinase Assay ALK3; enzyme assay
# ALK4 = ALK4 (Homo sapiens, UniProt P36896); experiment: TR-FRET enzymatic ALK kinase assay, ALK4; conditions: read-out: Kinase Assay ALK4; enzyme assay
# ALK5 = ALK5 (Homo sapiens, UniProt P36897); experiment: TR-FRET enzymatic ALK kinase assay, ALK5; conditions: read-out: Kinase Assay ALK5; enzyme assay
# ALK6 = ALK6 (Homo sapiens, UniProt O00238); experiment: TR-FRET enzymatic ALK kinase assay, ALK6; conditions: read-out: Kinase Assay ALK6; enzyme assay
smiles,measurement,setting,value
"CS(=O)(=O)c1cccc(-c2cnn3cc(-c4ccc(OC5(CN6CCC(O)C6)CC5)cc4)cnc23)c1 (centres unmarked) [Compound 195, 1-((1-(4-(3-(3-(methylsulfonyl)phenyl)pyrazolo[1,5-a]pyrimidin-6-yl)phenoxy)cyclopropyl)methyl)pyrrolidin-3-ol]",IC50,ALK1,390 nM
same,IC50,ALK3,850 nM
same,IC50,ALK4,> 10000 nM
same,IC50,ALK5,> 10000 nM
same,IC50,ALK6,> 10000 nM

# The match of structure and compound is tentative.
